# From US20250066503A1, “CELL INJURY INDUCING THERAPEUTIC DRUG FOR USE IN CANCER THERAPY” (CHUGAI SEIYAKU KABUSHIKI KAISHA, priority 2016, published 2025)
# Changes are numbered by the printed parent chain.
# B1: antibody-18: optimized anti-human CD3ε chain and anti-human GPC3 bispecific antibody (antibody)
# heavy 1: QVQLVESGGGLVQPGRSLRLSCAASGFTFSNAWMHWVRQAPGKGLEWVAQIKDKSQNYATYYAESVKGRFTISRADSKNSIYLQMNSLKTEDTAVYYCRYVHYSASYGVDAWGQGTTVTVSSASTKGPSVFPLAPCSRSTSESTAALGCLVKDYFPEPVTVSWNSGALTSGVHTFPAVLQSSGLYSLSSVVTVPSSSLGTKTYTCNVDHKPSNTKVDKRVESKYGPPCPPCPAPEFRGGPKVFLFPPKPKDTLMISRTPEVTCVVVDVSQEDPEVQFNWYVDGVEVHNAKTKPREEQFASTYRVVSVLTVLHQDWLNGKEYKCKVSNKGLPSSIEKTISKAKGQPREPQVYTLPPSQKEMTKNQVSLTCLVKGFYPSDIAVEWESNGQPENNYKTTPPVLDSDGSFFLYSKLTVDKSRWQEGNVFSCSVMHEALHNRYTQKSLSLSP
# heavy 2: QVQLVQSGAEVKKPGASVKVSCKASGYTFTDYEMHWIRQPPGQGLEWIGAIDGKTPDTAYSQKFKGRVTLTADKSTSTAYMELSSLTSEDTAVYYCTRFYSYTYWGQGTLVTVSSASTKGPSVFPLAPCSRSTSESTAALGCLVKDYFPEPVTVSWNSGALTSGVHTFPAVLQSSGLYSLSSVVTVPSSSLGTQTYTCNVDHKPSNTKVDKRVESKYGPPCPPCPAPEFRGGPKVFLFPPKPKDTLMISRTPEVTCVVVDVSQEDPEVQFNWYVDGVEVHNAKTKPREEQFASTYRVVSVLTVLHQDWLNGKEYKCKVSNKGLPSSIEKTISKAKGQPREPQVYTLPPSQEEMTKNQVSLTCLVKGFYPSDIAVEWESNGQPENNYKTTPPVLDSDGSFFLYSKLTVDKSRWQEGNVFSCSVMHEALHNHYTQESLSLSP
# light: DIVMTQSPLSLPVTPGEPASISCRSSQSPVHSNRNTYLHWYQQKPGQAPRLLIYKVSNRFWGVPDRFSGSGSGTDFTLKISRVEAEDVGVYYCYQGTQVPYTFGQGTKLEIKRTVAAPSVFIFPPSDEQLKSGTASVVCLLNNFYPREAKVQWKVDNALQSGNSQESVTEQDSKDSTYSLSSTLTLSKADYEKHKVYACEVTHQGLSSPVTKSFNRGEC
# B2: antibody-6: anti-human CD3ε chain and anti-human GPC3 bispecific antibody (antibody)
# heavy: QVQLVESGGGVVQPGRSLRLSCAASGFTFSNAWMHWVRQAPGKGLEWVANIKAKSNNYATYYAESVKGRFTISRDDSKNSLYLQMNSLKTEDTAVYYCRYVHYGAYYGVDAWGQGTTVTVSSASTKGPSVFPLAPSSKSTSGGTAALGCLVKDYFPEPVTVSWNSGALTSGVHTFPAVLQSSGLYSLSSVVTVPSSSLGTQTYICNVNHKPSNTKVDKKVEPKSCDKTHTCPPCPAPEAAGGPSVFLFPPKPKDTLMISRTPEVTCVVVDVSHEDPEVKFNWYVDGVEVHNAKTKPREEQYASTYRVVSVLTVLHQDWLNGKEYKCKVSNKALPAPIEKTISKAKGQPREPQVYTLPPSRCELTKNQVSLSCAVKGFYPSDIAVEWESNGQPENNYKTTPPVLDSDGSFFLVSKLTVDKSRWQQGNVFSCSVMHEALHNHYTQKSLSLSPDYKDDDDK
# light: B1 light with P29L, W61S, Y94G
# chain 1: DIVMTQSPLSLPVTPGEPASISCRSSQSLVHSNRNTYLHWYQQKPGQAPRLLIYKVSNRFSGVPDRFSGSGSGTDFTLKISRVEAEDVGVYYCSQNTHVPPTFGQGTKLEIKSSASTKGPSVFPLAPSSKSTSGGTAALGCLVKDYFPEPVTVSWNSGALTSGVHTFPAVLQSSGLYSLSSVVTVPSSSLGTQTYICNVNHKPSNTKVDKKVEPKSCDKTHTCPPCPAPEAAGGPSVFLFPPKPKDTLMISRTPEVTCVVVDVSHEDPEVKFNWYVDGVEVHNAKTKPREEQYASTYRVVSVLTVLHQDWLNGKEYKCKVSNKALPAPIEKTISKAKGQPREPQVCTLPPSRDELTKNQVSLWCLVKGFYPSDIAVEWESNGQPENNYKTTPPVLDSDGSFFLYSKLTVDKSRWQQGNVFSCSVMHEALHNHYTQKSLSLSPHHHHHHHH
# chain 2: QVQLVQSGAEVKKPGASVKVSCKASGYTFTDYEMHWIRQPPGQGLEWIGAIDPKTGDTAYSQKFKGRVTLTADKSTSTAYMELSSLTSEDTAVYYCTRFYSYTYWGQGTLVTVSSASVAAPSVFIFPPSDEQLKSGTASVVCLLNNFYPREAKVQWKVDNALQSGNSQESVTEQDSKDSTYSLSSTLTLSKADYEKHKVYACEVTHQGLSSPVTKSFNRGEC
# B3: antibody-20: optimized anti-human CD3ε chain and anti-human GPC3 bispecific antibody (antibody)
# heavy 1: B1 heavy 1
# heavy 2: B1 heavy 2
# light: B1 light with S28P, W61S
# B4: antibody-17: optimized anti-human CD3ε chain and anti-human GPC3 bispecific antibody (antibody)
# heavy 1: B1 heavy 1
# heavy 2: B1 heavy 2
# light: B1 light with W61S
# B5: antibody-19: optimized anti-human CD3ε chain and anti-human GPC3 bispecific antibody (antibody)
# heavy 1: B1 heavy 1
# heavy 2: B1 heavy 2
# light: B1 light with L38I, W61S
# B6: antibody-8: anti-human CD3ε chain and anti-human GPC3 bispecific antibody (antibody)
# heavy: EVQLVETGGSLVQPGKSLKLTCATSGFTFSNAWMHWVRQSPEKQLEWVAQIKAKSNNYATYYAESVKGRFTISRDDSKSNIYLQMNSLKEEDTAVYYCRYVHYGAYYGVDAWGQGTSVTVSSASTKGPSVFPLAPSSKSTSGGTAALGCLVKDYFPEPVTVSWNSGALTSGVHTFPAVLQSSGLYSLSSVVTVPSSSLGTQTYICNVNHKPSNTKVDKKVEPKSCDKTHTCPPCPAPEAAGGPSVFLFPPKPKDTLMISRTPEVTCVVVDVSHEDPEVKFNWYVDGVEVHNAKTKPREEQYASTYRVVSVLTVLHQDWLNGKEYKCKVSNKALPAPIEKTISKAKGQPREPQVYTLPPSRCELTKNQVSLSCAVKGFYPSDIAVEWESNGQPENNYKTTPPVLDSDGSFFLVSKLTVDKSRWQQGNVFSCSVMHEALHNHYTQKSLSLSPDYKDDDDK
# light: DVVMTQTPVSMSVSLGGQVSISCRSSQSLVHNNGNTYVSWYIQKPSQSPQLLIYKVSNRFSGISDRFSGSGSGTDFTLKISRVEPDDLGVYYCGQGTQDPYTFGAGTKLELKRTVAAPSVFIFPPSDEQLKSGTASVVCLLNNFYPREAKVQWKVDNALQSGNSQESVTEQDSKDSTYSLSSTLTLSKADYEKHKVYACEVTHQGLSSPVTKSFNRGEC
# chain 1: B2 chain 1
# chain 2: B2 chain 2 with P53G, G56P
# Tested on: extracellular matrix (BD Matrigel)
# Experiment: Assessment of the ECM-binding ability (ECL on BD Matrigel)
# Settings: fluorescence intensity relative to standard antibody MRAH-G1d/MRAL-k0
row,Molecule,ECM binding ratio (standard = 1)
1,MRAH-G1d/MRAL-k0: standard antibody of the ECM-binding assessment [reference compound],1
2,B1,50.4
3,B2,47.0
4,B3,15.5
5,B4,15.4
6,B5,7.4
7,B6,4.6
